Data as given in PubChem BioAssay AID1508597 (Cure First, 2020)
This is an unselected part of the about 2,100 reagents, in one setting of the screen. 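Calls flag viability under 80% in either arm, not effects specific to rucaparib; the reference for percent is not stated.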 A number with no mark means an inactive call. Some reagents were tested in more than one well and are listed for each. Not given: the 100% reference.

Purpose: 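Knock-downs altering ovarian cancer cell survival with or without PARP inhibitor rucaparib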 (primary screen)
Cells: human ovarian carcinoma lines grown from tumours: OCI-P5x (papillary serous) and OCI-C5x (clear cell)
Reagents: siRNA pool against human genes, 1.25 pmol siRNA per well
Time to read-out: 72 h or 96 h, depending on the cell culture
Treatment: rucaparib 20 µM (about IC30) or vehicle, present until read-out
Rucaparib or vehicle: Rucaparib
Cell line: OCI-P5x (serous)
Detection: 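ATP luminescence measured at 72 or 96 h according to the culture, then normalised and expressed as percent viability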
Scale: viability, normalised: higher = more viable cells remaining
Rule for the call: 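Active when normalised viability falls below 80 percent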
Calls: active = viability under 80%; inactive = viability 80% or more

no.	Gene	technical replicate	viability, normalised (%)
1	DCLRE1C	1	63.6 (active)
2	DCLRE1C	1	99.9
3	DCLRE1C	2	79.1 (active)
4	DCLRE1C	2	58.1 (active)
5	DCLRE1C	3	72.1 (active)
6	DCLRE1C	3	56.7 (active)
7	HERC2	1	161
8	HERC2	1	76.7 (active)
9	HERC2	2	172
10	HERC2	2	65 (active)
11	HERC2	3	125
12	HERC2	3	73.3 (active)
13	NABP2	1	44.9 (active)
14	NABP2	2	47.7 (active)
15	NABP2	3	14.4 (active)
16	BACC1	1	92.6
17	BACC1	1	67.9 (active)
18	BACC1	2	55.6 (active)
19	BACC1	2	90.1
20	BACC1	3	78.7 (active)
21	BACC1	3	92.3
22	HERC3	1	86.1
23	HERC3	2	78.6 (active)
24	HERC3	3	84.4

Continued, starting with the last 6 of the part before.
no.	Gene	technical replicate	viability, normalised (%)
19	BACC1	2	90.1
20	BACC1	3	78.7 (active)
21	BACC1	3	92.3
22	HERC3	1	86.1
23	HERC3	2	78.6 (active)
24	HERC3	3	84.4
25	KLF6	1	78.1 (active)
26	KLF6	2	58.7 (active)
27	KLF6	3	75.2 (active)
28	DSTYK	1	57.2 (active)
29	DSTYK	2	67.1 (active)
30	DSTYK	3	60.5 (active)
31	EIF4A3	1	39.5 (active)
32	EIF4A3	2	48 (active)
33	EIF4A3	3	47.9 (active)
34	HNRNPM	1	84.9
35	HNRNPM	2	78.5 (active)
36	HNRNPM	3	51.6 (active)
37	YBX1	1	66 (active)
38	YBX1	2	34.7 (active)
39	YBX1	3	71.3 (active)
40	TK1	1	88.6
41	TK1	1	87
42	TK1	2	83.1
43	TK1	2	91
44	TK1	3	75.4 (active)
45	TK1	3	78.9 (active)
46	TLR8	1	58.3 (active)
47	TLR8	2	57 (active)
48	TLR8	3	53.7 (active)
49	BRD7P3	1	85.4
50	BRD7P3	2	107
51	BRD7P3	3	83.4
52	TAOK1	1	110
53	TAOK1	2	122
54	TAOK1	3	94
55	PHF20L1	1	43.2 (active)
56	PHF20L1	2	35 (active)
57	PHF20L1	3	43.8 (active)
